# Library compounds against nucleic acid targets

Targets, with sequences 5′ to 3′:
TPP: TPP riboswitch RNA three-way junction, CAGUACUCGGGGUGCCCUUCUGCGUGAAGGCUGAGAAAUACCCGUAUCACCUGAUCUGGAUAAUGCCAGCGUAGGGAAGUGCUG. About 160 hits among about 24,000 compounds.
PreQ1: PreQ1 riboswitch RNA pseudoknot, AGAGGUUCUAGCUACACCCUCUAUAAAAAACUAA. From B. subtilis. About 170 hits among about 24,000 compounds.

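The test is a small-molecule microarray: each compound is printed twice on a reactive slide, and binding shows as fluorescence of the labelled oligonucleotide after washing. For the PreQ1, TPP and SAM-II riboswitches the laboratory earlier reported (doi:10.1038/s41467-019-09493-3) 1 µM RNA, 2 h, and a rule that included a mean Z-score above 3 (spot signal-to-noise against the whole library), a score well above that on a control array, and duplicate spots agreeing (coefficient of variation under 100). The data file gives only the calls; its cut-offs may differ, and compounds hitting several targets are kept. A missing hit is not proof of no binding, and a hit is not a measured affinity.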 A compound is marked hit if it was called a hit and no hit if it was screened but was not. The compounds are a random part of those screened.

{"smiles": "Cc1nc(CCNC(=O)c2n[nH]c(N)c2-c2ccccc2)sc1C", "TPP": "no hit", "PreQ1": "no hit"}
{"smiles": "CCc1ccc(CN2CC[C@@H]3[C@@H](CCC(=O)N3CCCCO)C2)nc1", "TPP": "no hit", "PreQ1": "no hit"}
{"smiles": "N#Cc1cccc(N2CCN(Cc3cc4ccccc4[nH]3)CC(O)C2)n1", "stereo": "stereo not given", "TPP": "no hit", "PreQ1": "no hit"}
{"smiles": "C=CCN(C(=O)c1ccccc1NC)C(C)C", "TPP": "no hit", "PreQ1": "no hit"}
{"smiles": "O=C(c1ccccn1)N1C[C@@H]2CC[C@H](C1)N(Cc1ccc(C#CCO)s1)C2", "TPP": "no hit", "PreQ1": "no hit"}
{"smiles": "COc1ccc(S(=O)(=O)N2CCC(NC3CC(=O)N(c4ccc(F)cc4)C3=O)CC2)cc1", "stereo": "stereo not given", "TPP": "no hit", "PreQ1": "no hit"}
{"smiles": "CN(CCO)C[C@@H]1CN(c2ncnc3sccc23)C[C@@H]1CO", "TPP": "no hit", "PreQ1": "no hit"}
{"smiles": "CCOc1ncccc1Cn1cc(-c2ccc(CO)o2)nn1", "TPP": "no hit", "PreQ1": "no hit"}
{"smiles": "COCCCN1CCN(C(=O)c2cccc3c2NCCC3)CC(O)C1", "stereo": "stereo not given", "TPP": "no hit", "PreQ1": "no hit"}
{"smiles": "O=C(Nc1ccc(Cl)c(Cl)c1)Nc1ccccc1O", "TPP": "no hit", "PreQ1": "no hit"}
{"smiles": "Cn1nc(C(=O)N2CCC3(CC2)[C@H](O)C[C@@H]3OCCN)cc1-c1ccccc1", "TPP": "no hit", "PreQ1": "no hit"}
{"smiles": "Cc1c(S(=O)(=O)c2ccc(F)cc2)c(N)n(Cc2ccc(Cl)cc2)c1C", "TPP": "no hit", "PreQ1": "no hit"}
{"smiles": "NNc1nncc2ccccc12", "TPP": "no hit", "PreQ1": "no hit"}
{"smiles": "c1ccc(-c2ncn(C3CCNC3)c2-c2cccc(-n3cccn3)c2)cc1", "stereo": "stereo not given", "TPP": "no hit", "PreQ1": "no hit"}
{"smiles": "C=CCN(Cc1nc(-c2ccccc2)no1)C(=O)CC1=CCNCC1", "TPP": "no hit", "PreQ1": "no hit"}
{"smiles": "N#Cc1nc(C=Cc2ccc(F)cc2)oc1NC1CC1", "TPP": "no hit", "PreQ1": "no hit"}
{"smiles": "COc1ccccc1OC1CCN(C(C(=O)O)c2ccc(CO)cc2)CC1", "stereo": "stereo not given", "TPP": "no hit", "PreQ1": "no hit"}
{"smiles": "O=C(CCc1cc2n(n1)CCNC2)N1CCOC(c2ccc(F)cc2)C1", "stereo": "stereo not given", "TPP": "no hit", "PreQ1": "no hit"}
{"smiles": "CCCCC1CCCN1C(=O)c1sc(N)nc1CC", "stereo": "stereo not given", "TPP": "no hit", "PreQ1": "no hit"}
{"smiles": "CCCCNCCOc1ccc(I)cc1.O=C(O)C(=O)O", "TPP": "no hit", "PreQ1": "no hit"}
{"smiles": "COc1cc2c(O)cc(C(=O)O)c(-c3cc(OC)c(OC)c(OC)c3)c2cc1OC", "TPP": "no hit", "PreQ1": "no hit"}
{"smiles": "CN(CC1(CO)CC1)C(=O)CC1C(=O)NCCN1C1Cc2ccccc2C1", "stereo": "stereo not given", "TPP": "no hit", "PreQ1": "no hit"}
{"smiles": "Nc1ccc(S(=O)(=O)NC(Cc2ccccc2)C(=O)O)cc1", "stereo": "stereo not given", "TPP": "no hit", "PreQ1": "no hit"}
{"smiles": "CN1[C@H]2CC[C@@H]1CN(C(=O)c1cn3c(n1)CNCC3)CC2", "TPP": "no hit", "PreQ1": "no hit"}
{"smiles": "CC1(C)CC(=O)C=C(Nc2ccc(F)cc2)C1", "TPP": "no hit", "PreQ1": "no hit"}
{"smiles": "CCOC(=O)c1ccccc1NC1c2ccccc2C(=O)N1c1ccc(C)cn1", "stereo": "stereo not given", "TPP": "no hit", "PreQ1": "no hit"}
{"smiles": "CCOc1ccccc1NC(=O)c1sc2nc3c(cc2c1N)CN(C)CC3", "TPP": "no hit", "PreQ1": "no hit"}
{"smiles": "CN1[C@@H]2CCC[C@H]1CC(NC(=O)c1nn(C)c3ccccc13)C2.Cl", "stereo": "stereo not given in full", "TPP": "no hit", "PreQ1": "no hit"}
{"smiles": "Nc1nc(Cn2nnn(-c3ccccc3Cl)c2=O)nc(N2CCCCC2)n1", "TPP": "no hit", "PreQ1": "no hit"}
{"smiles": "CCSC[C@H](N)C(=O)NCc1cnn2ccccc12", "TPP": "no hit", "PreQ1": "no hit"}
{"smiles": "CC1CN(CC(O)COc2ccc(Cl)cc2)CC(C)O1.Cl", "stereo": "stereo not given", "TPP": "no hit", "PreQ1": "no hit"}
{"smiles": "O=C([O-])C[C@H](O)C[C@H](O)C=Cc1c(C2CC2)nc2ccccc2c1-c1ccc(F)cc1", "TPP": "no hit", "PreQ1": "no hit"}
{"smiles": "CCNC(=O)[C@@H]1C[C@H](N)CN1S(=O)(=O)N1CCN(CC)CC1", "TPP": "no hit", "PreQ1": "no hit"}
{"smiles": "N[C@H]1c2ccccc2C[C@@H]1NC(=O)C1CCN(Cc2ccco2)CC1", "TPP": "no hit", "PreQ1": "no hit"}
{"smiles": "Ic1ccc(NCc2cn3ccccc3n2)cc1", "TPP": "no hit", "PreQ1": "no hit"}
{"smiles": "CC(=O)N1CCC2(CC1)C(C#N)=C(N)OC1=C2C(=O)CC(C)C1", "stereo": "stereo not given", "TPP": "no hit", "PreQ1": "no hit"}

2 of the entries, repeated:

{"smiles": "Ic1ccc(NCc2cn3ccccc3n2)cc1", "TPP": "no hit", "PreQ1": "no hit"}
{"smiles": "Nc1nc(Cn2nnn(-c3ccccc3Cl)c2=O)nc(N2CCCCC2)n1", "TPP": "no hit", "PreQ1": "no hit"}

Source: the ROBIN nucleic acid binder screens (doi:10.1002/anie.202211358).